Assay: Solubility of the drug substance in water
Type: physicochemical
From the text: Sesame oil was selected as an excipient to solubilize the drug substance.

For C=C(C)[C@@H]1CCC(C)=C[C@H]1c1c(O)cc(CCCCC)cc1O [CBD, Cannabidiol], the solubility in water was “insoluble in water”.

From patent publication US10583096B2, “Use of cannabinoids in the treatment of epilepsy” (GW Research Limited, priority 2016, dated 2020)
